From article PMC12431657, “Discovery and mechanistic insights of dibenzoylmethane as a broad spectrum inhibitor of coronavirus” (PLOS Pathogens, 2025)
Counter-ions that a name gives are not always drawn. Like-named read-outs stand apart in the source and are kept apart here. The campaign covered roughly 3,300 compounds. About 95 (3%) showed an effect of 50% or more. This is one part of the list.

Test system: HCoV-229E
Set-up: species or system Huh-7; HTS, protection from HCoV-229E induced cell death, luminescent cell viability (CellCounting-Lite 2.0), inhibition rate
Conditions: 24 h post infection, 1 h compound pre-incubation, 10 µM, inhibitor

SMILES	229E Inhibition rate	229E Inhibition rate (229E Inhibition rate, 24 h)
CC1=CC(=O)c2c(O)cccc2C1=O [Plumbagin]	5.1%	
COc1ccc(CC(=O)O)cc1O [Isohomovanillic acid]	20.2%	
COc1ccc(C[C@H](N)C(=O)N[C@H]2[C@@H](O)[C@H](n3cnc4c(N(C)C)ncnc43)O[C@@H]2CO)cc1 [Puromycin (dihydrochloride)]	8.9%	
O=C(O[C@@H]1O[C@@H]2COC(=O)c3cc(O)c(O)c(O)c3-c3c(cc(O)c(O)c3O)C(=O)O[C@H]([C@H]1O)[C@@H]2O)c1cc(O)c(O)c(O)c1 [Corilagin]	10.8%	
COc1ccc([C@@H]2CC(=O)c3c(O)cc(O[C@@H]4O[C@H](CO)[C@@H](O)[C@H](O)[C@H]4O)cc3O2)cc1O [Hesperetin 7-O-glucoside]	8%	
O=CCc1ccccc1 [2-Phenylacetaldehyde]	18.7%	
O=C(O)c1ccncc1 [Isonicotinic acid]	55%	
CC(=O)O[C@H]([C@@H](O)C[C@@H](C)C1=C2C[C@H](O)[C@H]3[C@@]4(C)CCC(=O)C(C)(C)[C@@H]4CC[C@]3(C)[C@@]2(C)CC1)C(C)(C)O [Alisol A 24-acetate]	49.8%	
O=C(O)c1cc(O)c2c(c1)[C@H]([C@H]1c3cccc(O)c3C(=O)c3c(O)cc(C(=O)O)cc31)c1cccc(O)c1C2=O [Sennidin B]	9%	
O=C(O)Cc1cc(O)ccc1O[C@@H]1O[C@H](CO)[C@@H](O)[C@H](O)[C@H]1O [Phaseoloidin]	18.8%	
O=c1ccn([C@@H]2O[C@H](CO)[C@@H](O)[C@H]2O)c(=O)[nH]1 [Uridine]	23.1%	
O=C1OCc2ccccc21 [Phthalide]	13%	
CC1=C[C@H]2c3c(O)cc(-c4cc5ccc(O)cc5o4)cc3O[C@@]3(c4ccc(O)cc4O)Oc4cc(O)ccc4[C@H](C1)[C@@H]23 [Mulberrofuran G]	6.6%	
C[C@H](CC(=O)C[C@@H](C)[C@H]1C[C@H](O)[C@@]2(C)C3=C(C(=O)C[C@]12C)[C@@]1(C)CCC(=O)C(C)(C)[C@@H]1C[C@@H]3O)C(=O)O [Ganoderic acid A]	12.5%	
N[C@H]1C(O)O[C@H](CO)[C@@H](O)[C@@H]1O (stereo partly drawn) [Glucosamine]		8%
C[C@@H]1CC[C@]2(C(=O)O[C@@H]3O[C@H](CO)[C@@H](O)[C@H](O)[C@H]3O)CC[C@]3(C)C(=CC[C@@H]4[C@@]5(C)C[C@@H](O)[C@H](O)[C@@](C)(CO)[C@@H]5CC[C@]43C)[C@@H]2[C@]1(C)O [Niga-ichigoside F1]	20.4%	
N[C@H](C(=O)O)[C@@H]1CC(Cl)=NO1 [Acivicin (hydrochloride)]	0%	

A few values from the entries so far:
In 229E Inhibition rate, O=C(O)c1cc(O)c2c(c1)[C@H]([C@H]1c3cccc(O)c3C(=O)c3c(O)cc(C(=O)O)cc31)c1cccc(O)c1C2=O [Sennidin B] is entered as 9%
In 229E Inhibition rate, O=C(O)Cc1cc(O)ccc1O[C@@H]1O[C@H](CO)[C@@H](O)[C@H](O)[C@H]1O [Phaseoloidin] is entered as 18.8%

Next compounds

SMILES	229E Inhibition rate	229E Inhibition rate (229E Inhibition rate, 24 h)
C[n+]1cccc(C(N)=O)c1 [TRIA-662]	14.4%	
C/C(=C\CC[C@@H](C)[C@H]1CC[C@@]2(C)C3=C(CC[C@]12C)[C@@]1(C)CCC(=O)C(C)(C)[C@@H]1CC3=O)C(=O)O [Ganoderic acid DM]	10.7%	
CC1(C)CC[C@]2(C(=O)O)CC[C@]3(C)C(=CC[C@@H]4[C@@]5(C)CC[C@H](O)C(C)(C)[C@@H]5CC[C@]43C)[C@@H]2C1 [Oleanolic Acid]	9.8%	
CC1=C(/C=C/C(C)=C/C=C/C(C)=C/C=C/C=C(C)/C=C/C=C(\C)C=O)C(C)(C)CCC1 [β-Apo-8'-carotenal]	8.1%	
C[C@@H]1O[C@@H](Oc2cc(O)c3c(=O)c(O)c(-c4ccc(O)cc4)oc3c2)[C@H](O)[C@H](O)[C@H]1O [Kaempferol-7-O-rhamnoside]	8.4%	
O=c1c(-c2ccc(O)cc2)coc2cc(O)ccc12 [Daidzein]	0%	
COc1cc(O)c2c(=O)cc(-c3ccc(O)c(OC)c3)oc2c1 [Velutin]	29.8%	
CCCC(=O)c1c(O)c(CC2=C(O)C(C)(C)C(=O)C(C(C)=O)=C2O)c(O)c(Cc2c(O)c(CC3=C(O)C(C)(C)C(=O)C(C(C)=O)=C3O)c(O)c(C(=O)CCC)c2O)c1O [Dryocrassin ABBA]	49.1%	
O=C(CO)[C@@H](O)[C@H](O)[C@H](O)COP(=O)(O)O [D-Fructose-6-phosphate (disodium) salt]	13%	
Cc1ncc(CO)c(CN)c1O [Pyridoxylamine (dihydrochloride)]		23.1%
C=C(C)[C@H](C)c1cc(/C=C/C(=O)c2ccc(O)cc2)c(OC)cc1O [Licochalcone E]	61.6%	
CC1(C)CC[C@]2(C(=O)O[C@@H]3O[C@H](CO)[C@@H](O)[C@H](O)[C@H]3O)CC[C@]3(C)C(=CC[C@@H]4[C@@]5(C)CC[C@H](O[C@@H]6O[C@H](CO)[C@@H](O)[C@H](O[C@@H]7O[C@H](CO)[C@@H](O)[C@H](O)[C@H]7O)[C@H]6O[C@@H]6O[C@H](CO)[C@@H](O)[C@H](O)[C@H]6O)[C@@](C)(CO)[C@@H]5CC[C@]43C)[C@@H]2C1 [Araloside VII]	12.5%	
CCCCCCCCCCCCCCCCCCCCCC(=O)O[C@H]1CC[C@@]2(C)C(=CC[C@H]3[C@@H]4CC[C@H]([C@H](C)CCCC(C)C)[C@@]4(C)CC[C@@H]32)C1 [Cholesteryl behenate]	11.6%	
CC1(C)CC[C@]2(C(=O)O)CC[C@]3(C)C(=CC[C@@H]4[C@@]5(C)CC[C@@H](O)C(C)(C)[C@@H]5CC[C@]43C)[C@@H]2C1 [3-Epioleanolic acid]	2.7%	
CC1=CC(=O)CC1 [3-Methyl-2-cyclopenten-1-one]	14.3%	
C[C@H](CC[C@@]1(O)O[C@H]2C[C@H]3[C@@H]4CC=C5C[C@@H](O[C@@H]6O[C@H](CO)[C@@H](O[C@@H]7O[C@@H](C)[C@H](O)[C@@H](O)[C@H]7O)[C@H](O)[C@H]6O[C@@H]6O[C@@H](C)[C@H](O)[C@@H](O)[C@H]6O)CC[C@]5(C)[C@H]4CC[C@]3(C)[C@H]2[C@@H]1C)CO[C@@H]1O[C@H](CO)[C@@H](O)[C@H](O)[C@H]1O [Protodioscin]	7.5%	
